Measured values: patent US20030162221A1
No constants are given. Whether binding was seen depends on the method and setting. Binding seen in cells or lysates may run through a third protein. Some entries that bind do so weakly or less than the wild type. Sequences can lack the tags named with a protein.

The chains behind the UniProt entries cited, without tags or fusion partners.
UniProt P32598: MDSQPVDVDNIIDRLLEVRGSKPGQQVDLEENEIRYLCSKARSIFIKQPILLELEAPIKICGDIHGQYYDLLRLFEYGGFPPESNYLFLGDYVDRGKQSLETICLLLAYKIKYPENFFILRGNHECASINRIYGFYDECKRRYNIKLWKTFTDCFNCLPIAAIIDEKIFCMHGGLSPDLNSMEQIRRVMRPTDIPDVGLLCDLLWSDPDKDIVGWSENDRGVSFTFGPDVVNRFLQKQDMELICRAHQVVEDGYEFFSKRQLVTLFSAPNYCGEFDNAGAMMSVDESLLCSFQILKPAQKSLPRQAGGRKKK

Experiments:
Assay in all cases: anti-FLAG co-IP, LC-MS/MS
[1] = molecular target: T1, Fip1 (Saccharomyces cerevisiae) (UniProt P45976)
T1 sequence (looked up): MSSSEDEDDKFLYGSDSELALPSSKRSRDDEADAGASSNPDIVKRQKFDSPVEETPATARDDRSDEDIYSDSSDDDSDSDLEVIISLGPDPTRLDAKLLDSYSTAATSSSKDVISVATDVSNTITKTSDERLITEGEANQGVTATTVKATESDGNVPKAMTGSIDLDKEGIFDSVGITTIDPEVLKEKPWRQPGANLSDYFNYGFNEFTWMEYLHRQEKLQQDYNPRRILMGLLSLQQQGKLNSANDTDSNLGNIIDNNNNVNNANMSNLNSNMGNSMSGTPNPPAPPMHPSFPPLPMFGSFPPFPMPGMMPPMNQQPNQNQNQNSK

[2] = molecular target: T2, Glc8 (Saccharomyces cerevisiae) (UniProt P41818)
T2 sequence (looked up): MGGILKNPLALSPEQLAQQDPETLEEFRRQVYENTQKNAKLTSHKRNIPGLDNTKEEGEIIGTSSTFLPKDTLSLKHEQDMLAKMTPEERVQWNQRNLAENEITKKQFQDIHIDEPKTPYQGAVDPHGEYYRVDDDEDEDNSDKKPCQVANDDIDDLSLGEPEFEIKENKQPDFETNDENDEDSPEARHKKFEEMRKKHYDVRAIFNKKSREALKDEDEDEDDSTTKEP

[3] = molecular target: T3, Kel1 (Saccharomyces cerevisiae) (UniProt P38853)
T3 sequence (looked up): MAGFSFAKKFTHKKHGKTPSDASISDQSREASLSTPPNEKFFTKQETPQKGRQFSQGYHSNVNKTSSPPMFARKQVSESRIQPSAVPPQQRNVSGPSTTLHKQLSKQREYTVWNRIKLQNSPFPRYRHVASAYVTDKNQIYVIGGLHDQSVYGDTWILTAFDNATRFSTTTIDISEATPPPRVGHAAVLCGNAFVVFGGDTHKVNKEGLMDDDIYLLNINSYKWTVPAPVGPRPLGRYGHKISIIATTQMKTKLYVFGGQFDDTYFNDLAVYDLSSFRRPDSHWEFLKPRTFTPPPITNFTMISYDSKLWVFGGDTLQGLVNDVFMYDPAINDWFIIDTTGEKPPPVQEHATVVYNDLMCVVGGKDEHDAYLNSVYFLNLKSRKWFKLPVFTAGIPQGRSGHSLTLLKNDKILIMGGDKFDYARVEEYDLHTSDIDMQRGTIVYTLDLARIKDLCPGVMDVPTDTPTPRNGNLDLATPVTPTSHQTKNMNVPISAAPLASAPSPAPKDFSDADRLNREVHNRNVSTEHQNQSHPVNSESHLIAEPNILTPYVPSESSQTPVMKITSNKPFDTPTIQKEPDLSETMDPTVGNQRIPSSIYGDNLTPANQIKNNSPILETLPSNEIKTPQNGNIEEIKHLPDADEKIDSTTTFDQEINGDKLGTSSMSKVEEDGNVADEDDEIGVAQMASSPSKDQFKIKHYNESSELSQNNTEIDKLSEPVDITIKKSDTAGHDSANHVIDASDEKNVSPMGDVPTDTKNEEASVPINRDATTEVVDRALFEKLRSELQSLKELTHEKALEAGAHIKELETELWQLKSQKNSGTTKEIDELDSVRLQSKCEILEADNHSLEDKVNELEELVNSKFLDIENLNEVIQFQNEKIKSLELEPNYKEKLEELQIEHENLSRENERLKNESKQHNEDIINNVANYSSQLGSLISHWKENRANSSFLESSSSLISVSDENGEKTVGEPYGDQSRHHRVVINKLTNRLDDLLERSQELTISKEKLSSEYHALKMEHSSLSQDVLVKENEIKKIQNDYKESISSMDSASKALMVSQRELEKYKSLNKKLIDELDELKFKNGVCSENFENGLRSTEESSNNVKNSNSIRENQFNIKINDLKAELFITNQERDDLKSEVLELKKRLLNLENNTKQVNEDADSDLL

[4] = molecular target: T4, Ygr103w (Saccharomyces cerevisiae) (UniProt P53261)
T4 sequence (looked up): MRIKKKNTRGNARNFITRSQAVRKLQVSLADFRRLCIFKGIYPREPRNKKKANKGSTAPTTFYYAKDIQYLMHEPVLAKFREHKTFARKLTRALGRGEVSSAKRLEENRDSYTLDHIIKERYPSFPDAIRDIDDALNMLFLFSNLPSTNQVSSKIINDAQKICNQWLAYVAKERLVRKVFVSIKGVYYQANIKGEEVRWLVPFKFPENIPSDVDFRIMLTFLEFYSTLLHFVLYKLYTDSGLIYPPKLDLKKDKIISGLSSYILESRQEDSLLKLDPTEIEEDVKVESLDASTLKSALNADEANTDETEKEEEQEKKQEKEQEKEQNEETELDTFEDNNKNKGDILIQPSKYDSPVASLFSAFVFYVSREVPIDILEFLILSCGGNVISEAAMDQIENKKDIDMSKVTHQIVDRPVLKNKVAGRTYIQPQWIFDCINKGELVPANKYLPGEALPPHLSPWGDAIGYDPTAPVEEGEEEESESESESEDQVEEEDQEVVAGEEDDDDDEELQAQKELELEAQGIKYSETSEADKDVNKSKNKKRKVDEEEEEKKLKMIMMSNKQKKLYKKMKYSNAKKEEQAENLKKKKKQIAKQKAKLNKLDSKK

[5] = molecular target: T5, Ytm1 (Saccharomyces cerevisiae) (UniProt Q12024)
T5 sequence (looked up): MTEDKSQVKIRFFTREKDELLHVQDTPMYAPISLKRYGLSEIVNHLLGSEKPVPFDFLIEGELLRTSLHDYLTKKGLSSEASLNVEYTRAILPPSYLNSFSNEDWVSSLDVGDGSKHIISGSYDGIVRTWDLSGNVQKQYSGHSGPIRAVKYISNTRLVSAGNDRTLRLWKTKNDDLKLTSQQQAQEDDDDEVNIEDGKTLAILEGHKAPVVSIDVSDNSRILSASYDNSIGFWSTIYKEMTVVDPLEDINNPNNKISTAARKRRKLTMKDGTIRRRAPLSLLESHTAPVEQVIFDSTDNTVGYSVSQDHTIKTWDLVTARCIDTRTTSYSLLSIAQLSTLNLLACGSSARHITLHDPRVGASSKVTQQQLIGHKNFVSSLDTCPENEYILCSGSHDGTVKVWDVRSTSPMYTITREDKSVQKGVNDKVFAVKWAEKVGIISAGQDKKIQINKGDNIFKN

Measured: binding

Glc7 (from UniProt P32598 1-312)
binds: all assays above
